Results are given in words; binding and its absence hold for the method and conditions named. Binding calls can cover weak binding; strength is not graded here.
Key:
human factor Xa (human) [1] = target: human factor Xa (human) (UniProt P00742); experiment: TFPI activity and human factor Xa binding assay on PMA-activated endothelial cells
human factor Xa (human) [2] = target: human factor Xa (human) (UniProt P00742); experiment: TFPI activity and human factor Xa binding assay on PMA-activated endothelial cells (unbound Xa read against an rTFPI standard curve)

The chains behind the UniProt entries cited, without tags or fusion partners. Where a name states a change or a piece, a line headed by the entry shows the natural chain unless it says otherwise. Residues count along the entry.
UniProt P00742: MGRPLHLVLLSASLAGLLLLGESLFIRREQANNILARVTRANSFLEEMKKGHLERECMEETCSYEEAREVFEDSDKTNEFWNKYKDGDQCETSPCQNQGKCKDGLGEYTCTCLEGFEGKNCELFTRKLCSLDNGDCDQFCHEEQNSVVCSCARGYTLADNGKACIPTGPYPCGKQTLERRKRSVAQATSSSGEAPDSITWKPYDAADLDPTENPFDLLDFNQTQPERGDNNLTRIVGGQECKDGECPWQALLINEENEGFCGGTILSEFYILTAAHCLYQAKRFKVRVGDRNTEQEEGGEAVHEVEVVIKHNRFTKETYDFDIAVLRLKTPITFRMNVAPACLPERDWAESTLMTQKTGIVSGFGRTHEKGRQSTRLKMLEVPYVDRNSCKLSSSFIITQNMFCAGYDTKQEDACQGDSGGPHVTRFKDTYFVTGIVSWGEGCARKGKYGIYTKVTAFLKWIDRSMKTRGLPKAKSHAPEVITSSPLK
UniProt P10646, residues 29-304: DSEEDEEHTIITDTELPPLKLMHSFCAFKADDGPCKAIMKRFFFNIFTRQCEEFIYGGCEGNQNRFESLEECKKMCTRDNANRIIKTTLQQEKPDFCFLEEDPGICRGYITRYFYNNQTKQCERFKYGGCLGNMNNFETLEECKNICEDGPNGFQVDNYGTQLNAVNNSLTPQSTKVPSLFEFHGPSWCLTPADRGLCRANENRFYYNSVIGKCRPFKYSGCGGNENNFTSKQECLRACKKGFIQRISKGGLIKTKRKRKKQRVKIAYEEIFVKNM

binding (human factor Xa (human) [1]): binds | binding (human factor Xa (human) [2]): binds
Substance: human tissue factor pathway inhibitor (TFPI) transgene product on the surface of PMA-activated Pig 2.0 (3KO+9TG) and Pig 3.0 (3KO+9TG) PUVECs (from UniProt P10646 29-304)

— patent publication US20220267805A1
